Earlier results as cited in patent US20100172981A1, “Ibuprofen-Effervescent Preparation Having a High Dissolution Rate and Method for the Production thereof” (Losan Pharma GMBH, priority 2006, published 2010).

Conditions: general statement in the background section

- solubility / dissolution in water (words, background): virtually insoluble in water
Structure (SMILES): CC(C)Cc1ccc(C(C)C(=O)O)cc1 (stereo not shown) [ibuprofen, 2-(4-isobutylphenyl) propionic acid]
